Patent US20140044738A1 (AstraZeneca / MedImmune, published 2014)
No constants are given. Whether binding was seen depends on the method and setting. Some entries that bind do so weakly or less than the wild type. Sequences can lack the tags named with a protein.

The chains behind the UniProt entries cited, without tags or fusion partners. Residues count along the entry.
UniProt Q15116, residues 25-167: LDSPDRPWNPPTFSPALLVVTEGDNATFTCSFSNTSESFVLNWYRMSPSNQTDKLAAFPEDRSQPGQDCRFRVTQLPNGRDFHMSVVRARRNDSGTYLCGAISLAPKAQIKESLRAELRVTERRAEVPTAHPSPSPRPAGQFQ

Target: human PD-1 (form in the assay not stated) (human) (UniProt Q15116)
Experiment: flow cytometry histogram, axis PE-A: SA; cells not named on the sheet or in the text

- binding: binds
B1: 1H3 Construct (chimeric murine anti-human PD-1 Fab regions of antibody 1H3 and a human IgG1 Fc region) (antibody, V domains shown)
VH: EVQLVESGGGLVKPGGSLKLSCAASGFTFSDYGMHWVRQAPEKGLEWVAYISSGSYTIYYTDTVKGRFTISRDNAKNTLFLQMTSLRSEDTAMYYCARRGYGSFYEYYFDYWGQGTTLTVSS
VL: QIVLTQSPALMSASPGEKVTMTCSASSSVSYMYWYQQKPRSSPKPWIYLTSNLASGVPARFSGSGSGTSYSLTISSMEAEDAATYYCQQWSSNPFTFGSGTKLEIK
notes: also called 1H3 anti-human PD-1 chimeric antibody; chimeric 1H3
